Reference: PubChem BioAssay AID686937 (Drosophila RNAi Screening Center, 2013)

Test: 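Knock-downs that reduce output of a secreted reporter enzyme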 (primary screen)
System: Drosophila S2 cells expressing secreted horseradish peroxidase
Reagent: long dsRNA against Drosophila genes
Time to read-out: about 5.5 days (5 days dsRNA, then 12 h reporter induction)
Challenge: reporter expression induced after 5 days of dsRNA, read 12 h later; inducer not stated
Measurement: 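Chemiluminescent measurement of peroxidase in the medium 12 h after reporter induction, following 5 days of dsRNA, given as a z-score per plate; higher means more secretion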
Direction: z-score: higher = more reporter secreted into medium
The screen tested about 23,000 reagents; this is a random part of those with a known target gene and a result. 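Reduced-secretion tags in replicate 1 do not always agree with the z-scores; no criterion for assigning the tags was given.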 A plus sign joins genes that one reagent is predicted to hit. Further read-outs or replicates are left out here. The record does not give: the amount of reagent.

gene	DRSC id	z-score, replicate 1
CG8526	DRSC16438	0.32
CG31231	DRSC13308	-0.13
Teh1	DRSC14544	0.26
santa-maria	DRSC00994	-0.44
santa-maria	DRSC02180	0.04
CG13733	DRSC10061	0.06
U2af50	DRSC20297	-2.19
U2af50	DRSC22867	1.49
CG18048	DRSC12573	0.34
CG42712 (retired record)	DRSC01038	0.04
CG15651	DRSC04242	0.05
Pif1A + Pif1B	DRSC14142	0.18
Pif1A + Pif1B	DRSC14380	0.29
Pif1A + Pif1B	DRSC14381	0.39
UQCR-6.4	DRSC06454	0.36
CG7191	DRSC03022	0.7
ppk5	DRSC11492	0.6
CG17266	DRSC04979	0.25
CG17266	DRSC22368	0.3
mats	DRSC13562	0.14
mats	DRSC14702	0.38
vex	DRSC19481	0.17
vex	DRSC19651	0.42
vex	DRSC21843	0.34
CG17075	DRSC00483	0.38
CG31897	DRSC01020	0.16
CG14966	DRSC08425	0.18
Su(var)3-3	DRSC10250	0.13
NC2beta	DRSC01895	0.25
Oatp74D	DRSC09491	0.5
Oatp74D	DRSC10883	0.18
CG34281	DRSC14807	-0.48
CAH6	DRSC15505	-2.03

Already shown: 4 of the entries above.
gene	DRSC id	z-score, replicate 1
vex	DRSC19481	0.17
vex	DRSC19651	0.42
vex	DRSC21843	0.34
CG17075	DRSC00483	0.38
